From paper PMC9348664 come the findings set out here.

Amino acid sequences for entries named in this document (tags omitted).
UniProt Q16877: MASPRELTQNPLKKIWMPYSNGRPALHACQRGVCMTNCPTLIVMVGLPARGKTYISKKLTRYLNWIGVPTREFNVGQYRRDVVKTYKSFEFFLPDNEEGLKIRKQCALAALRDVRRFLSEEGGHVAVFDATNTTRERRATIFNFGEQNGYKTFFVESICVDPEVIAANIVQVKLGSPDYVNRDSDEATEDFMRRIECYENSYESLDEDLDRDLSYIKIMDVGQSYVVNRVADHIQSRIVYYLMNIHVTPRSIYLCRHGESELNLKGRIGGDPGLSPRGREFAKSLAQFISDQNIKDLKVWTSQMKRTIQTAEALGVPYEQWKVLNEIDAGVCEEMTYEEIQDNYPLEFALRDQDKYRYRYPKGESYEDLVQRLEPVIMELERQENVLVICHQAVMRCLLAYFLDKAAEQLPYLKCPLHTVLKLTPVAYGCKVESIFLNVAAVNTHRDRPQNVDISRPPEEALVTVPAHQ
UniProt O60725: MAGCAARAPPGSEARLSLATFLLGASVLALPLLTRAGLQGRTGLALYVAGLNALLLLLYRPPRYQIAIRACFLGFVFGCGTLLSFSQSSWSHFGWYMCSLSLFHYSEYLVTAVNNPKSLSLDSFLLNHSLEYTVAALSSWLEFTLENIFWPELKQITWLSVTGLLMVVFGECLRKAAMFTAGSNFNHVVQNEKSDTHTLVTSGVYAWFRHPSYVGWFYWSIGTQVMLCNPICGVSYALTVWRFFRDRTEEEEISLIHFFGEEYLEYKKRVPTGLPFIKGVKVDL

Results are given in words; binding and its absence hold for the method and conditions named. For some assays here: In cells and extracts the contact can be indirect. Some results given as binding are weak or reduced against the parent protein; the word gives no strength.

The target in assay [1] is FLAG-tagged human PFKFB4 (human) (UniProt Q16877). The assay is described as follows: co-IP; FLAG-M2 magnetic beads on lysate of transfected MeWo cells (100 mM NaCl, 0.5% NP-40, 20 mM Tris-HCl pH 7.5, 5 mM MgCl2), overnight at 4°C; Western blotting; for ICMT and RAS with or without PFKFB4 depletion by siRNA. For orientation: A western blot detects proteins with antibodies after separation by electrophoresis.

Another assay addresses ICMT-Cub-GAL4 (human) (UniProt O60725). The assay is described as follows: two-hybrid; MaMTH (mammalian membrane split-ubiquitin two-hybrid) in MaMTH-modified HEK293T cells; bait fused to Cub-GAL4, prey fused to Nub; GAL4-driven luciferase normalised to Renilla.

For the substance “ICMT tagged with V5 (from UniProt O60725 1-284) (enzyme)”, the binding entry in assay [1] was “binds”. For “human PFKFB4 as MaMTH fusions (PFKFB4-Cub-GAL4 bait; PFKFB4-Nub prey) (from UniProt Q16877 1-469) (enzyme)”, the binding entry with ICMT-Cub-GAL4 (human) is recorded as “binds”.
